Tests used:
[1] = test system: MCF-7 human breast carcinoma cells; experiment: cells; settings: MCF7, 96 h, read-out: MCF-7 IC50 ± SD
[2] = test system: HeLa (human cervical carcinoma) cells; settings: read-out: IC50 ± SD HeLA; MTT method; 48 h; ref 10b; cited from earlier work
[3] = test system: HT29 (human colon adenocarcinoma) cells; settings: read-out: IC50 ± SD HT-29; MTT method; 48 h; ref 10b; cited from earlier work
[4] = test system: A549 (human lung carcinoma) cells; settings: read-out: IC50 ± SD A549; MTT method; 48 h; ref 10b; cited from earlier work
[5] = test system: HCT116 (human colon carcinoma cells); settings: read-out: IC50 ± SD HCT116; ref 10b; cited from earlier work

COc1cc2c(c(OC)c1OC)-c1ccc(OC)c(=O)cc1[C@@H](NC(C)=O)CC2 [Compound 1, Colchicine]
IC50 [1]: 5 ± 1 nM
IC50 [2]: 28 ± 9 nM
IC50 [3]: 18 ± 4 nM
IC50 [4]: 20 ± 8 nM
IC50 [5]: 20 ± 2 nM

— paper PMC4154712 (Journal of medicinal chemistry, 2014)
